Measurements: patent US20020128189A1, “Ubiquitination of the transcription factor E2A” (President and Fellows of Harvard College, a Massachusetts …, priority 1996, published 2002)
No constants are given. Whether binding was seen depends on the method and setting. For some of these results: In cells and extracts the contact can be indirect. Some entries that bind do so weakly or less than the wild type. For some of these results: Sequences can lack the tags named with a protein. Each block holds one substance with its values, some of them ahead of it.

Assays:
[1] = target: T1, E47 amino acids 477-530 bait (54-amino acid region of E47) (UniProt P15923); assay: yeast two-hybrid interaction trap
T1 sequence (looked up): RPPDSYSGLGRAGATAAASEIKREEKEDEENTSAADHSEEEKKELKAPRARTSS

[2] = target: T2, LexA-E47477-651 (UniProt P15923); assay: yeast two-hybrid interaction trap
T2 sequence (looked up): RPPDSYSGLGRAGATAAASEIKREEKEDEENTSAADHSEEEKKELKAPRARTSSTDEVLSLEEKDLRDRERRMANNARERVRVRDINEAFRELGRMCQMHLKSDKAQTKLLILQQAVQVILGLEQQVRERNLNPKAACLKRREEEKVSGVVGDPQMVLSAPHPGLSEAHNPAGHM

[3] = target: T2, LexA-E47477-651; assay: yeast two-hybrid interaction trap, beta-galactosidase assay
[4] = target: T3, Id3 (clone of the rat aorta cDNA library, activation-domain fusion) (rat) (UniProt P41138); assay: yeast two-hybrid interaction trap
T3 sequence (looked up): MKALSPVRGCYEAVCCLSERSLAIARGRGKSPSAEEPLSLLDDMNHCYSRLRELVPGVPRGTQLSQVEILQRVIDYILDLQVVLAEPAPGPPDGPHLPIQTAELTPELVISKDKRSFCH

[5] = target: in vitro translated E12 protein (UniProt P15923); assay: co-immunoprecipitation of in vitro translated proteins with an anti-E12 antibody
[6] = target: GST-E121-654 (human) (UniProt P15923); assay: GST pull-down of 35S-labeled in vitro translated UBCE2A on glutathione-Sepharose beads
[7] = target: GST-E12477-654 (human) (UniProt P15923); assay: as above

binding [1]: binds
binding [2]: binds
binding [3]: binds
Substance: AD-UBCE2A (full-length UBCE2A fused to the B42 transcription activation domain) (from UniProt P63279 1-158) (enzyme)

binding [4]: binds
Substance: LexA-E12539-654 (from UniProt P15923 539-654)

binding [5]: binds
binding [6]: binds
binding [7]: binds
Substance: [35S]methionine-labeled in vitro translated UBCE2A (from UniProt P63279 1-158) (enzyme)
